The experiment deals with T1, Flag-TRIM56 (tripartite motif 56), expressed from an adenovirus in SVF cells (UniProt Q9BRZ2).
T1 sequence: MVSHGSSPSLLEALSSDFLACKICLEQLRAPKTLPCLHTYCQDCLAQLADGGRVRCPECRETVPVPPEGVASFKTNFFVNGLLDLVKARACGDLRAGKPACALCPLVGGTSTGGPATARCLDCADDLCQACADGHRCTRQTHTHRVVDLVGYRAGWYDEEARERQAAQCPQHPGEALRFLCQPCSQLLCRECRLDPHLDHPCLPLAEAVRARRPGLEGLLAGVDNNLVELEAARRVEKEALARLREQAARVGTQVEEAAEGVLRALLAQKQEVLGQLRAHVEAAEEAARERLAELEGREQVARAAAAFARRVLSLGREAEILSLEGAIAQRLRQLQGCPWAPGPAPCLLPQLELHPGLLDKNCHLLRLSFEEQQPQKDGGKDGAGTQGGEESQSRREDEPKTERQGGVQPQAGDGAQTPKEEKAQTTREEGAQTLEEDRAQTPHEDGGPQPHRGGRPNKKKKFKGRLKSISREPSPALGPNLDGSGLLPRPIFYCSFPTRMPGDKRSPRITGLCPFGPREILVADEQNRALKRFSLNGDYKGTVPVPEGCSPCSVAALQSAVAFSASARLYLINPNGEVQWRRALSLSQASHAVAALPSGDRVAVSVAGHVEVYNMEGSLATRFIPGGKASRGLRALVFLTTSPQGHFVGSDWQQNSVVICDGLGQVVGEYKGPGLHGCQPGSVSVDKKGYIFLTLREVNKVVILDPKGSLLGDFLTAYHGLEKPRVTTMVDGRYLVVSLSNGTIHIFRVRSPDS
The experiment is described as follows: affinity purification with mass spectrometry; IP with Flag tag-specific antibodies from lysates of SVF cells infected with adenovirus Flag-TRIM56 or FLAG control for 24 h, then 20 µM MG132 for 4 h; timsTOF Pro, fold change greater than 4 over control.

Protein sequences, listed by entry. Tags and fused reporters are not part of them.
UniProt Q08122: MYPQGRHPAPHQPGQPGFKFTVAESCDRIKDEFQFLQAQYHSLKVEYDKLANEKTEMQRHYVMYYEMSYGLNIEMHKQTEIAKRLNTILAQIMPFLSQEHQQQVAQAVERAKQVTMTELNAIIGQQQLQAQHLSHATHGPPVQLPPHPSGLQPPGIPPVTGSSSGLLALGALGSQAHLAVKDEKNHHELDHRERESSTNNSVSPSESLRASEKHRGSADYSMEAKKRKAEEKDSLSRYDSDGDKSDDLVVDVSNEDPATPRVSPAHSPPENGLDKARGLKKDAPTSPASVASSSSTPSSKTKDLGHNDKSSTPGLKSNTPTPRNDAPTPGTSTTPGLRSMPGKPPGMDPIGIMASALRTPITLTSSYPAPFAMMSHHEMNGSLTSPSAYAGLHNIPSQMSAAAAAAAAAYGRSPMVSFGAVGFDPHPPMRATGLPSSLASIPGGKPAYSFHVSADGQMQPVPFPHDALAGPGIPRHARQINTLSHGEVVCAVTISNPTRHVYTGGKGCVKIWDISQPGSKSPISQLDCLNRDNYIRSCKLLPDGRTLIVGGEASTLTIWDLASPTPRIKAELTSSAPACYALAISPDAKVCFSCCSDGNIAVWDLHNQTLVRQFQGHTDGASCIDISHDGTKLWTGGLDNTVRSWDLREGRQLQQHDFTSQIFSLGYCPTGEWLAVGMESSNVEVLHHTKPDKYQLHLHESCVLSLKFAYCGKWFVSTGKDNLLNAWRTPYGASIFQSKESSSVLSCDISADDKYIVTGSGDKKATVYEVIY

These are yes or no findings as the source states them, for the method shown. Binding seen in cells or lysates may run through a third protein. A yes stands for co-enrichment or nearness to the bait. Other partners may have been found. Sequences can lack the tags named with a protein.

On to “transducin-like enhancer protein 3 (TLE3), endogenous mouse (from UniProt Q08122 1-772)”, for which the binding result is recorded as “binds”.

These data come from paper PMC11967773.
